The other results are listed elsewhere or left out. These are further read-outs of the screen, such as a control signal, another cell line or another target. No call is given for them. Most of these compounds were active or inconclusive in the main read-out, so they are no random draw. The note in brackets gives the kind of curve behind each potency; many fits are weak.
Experiment: IkB Signaling
Conditions: ABC-DLBCL IkBa-CBG/CBR dual luciferase ratio (green luciferase fused to IkBa over red control in OCI-Ly3 lymphoma cells), 4 h
Procedure, shortened: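 In this assay, an IκBα–CBG68 fusion accumulates when IKK-driven degradation is blocked; native CBR normalizes for cell number. OCI-Ly3 cells were treated 4 h with compound and doxycycline, then green and red light read after Chroma-Glo addition.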

[1] = measured here: control luc red channel unless noted
[2] = measured here: IkB-luc green channel
[3] = measured here: control luc red channel

Cc1cccc(-c2noc(-c3ccccc3NC(=O)C3CC(=O)N(c4ccccc4C)C3)n2)c1 (configuration not stated)
AC50 [1]: 7.94 µM [rising, full curve]

COc1ccc(S(=O)(=O)Nc2cccc(-c3ccc(N4CCC(C)CC4)nn3)c2)cc1OC
AC50 [1]: 0.2 µM [falling, full curve]

Cn1ccc2cc(S(=O)(=O)N3CCCC(C(=O)NCc4ccccc4)C3)ccc21 (configuration not stated)
AC50 [1]: 12.6 µM [falling, partial curve]

CCn1c(=O)c2cc(C(=O)Nc3cc(OC)c(OC)c(OC)c3)sc2c2ccccc21
AC50 [1]: 12.6 µM [falling, partial curve]

N#Cc1nc(Cc2ccccc2)oc1NCc1ccccc1Cl
AC50 [1]: 20 µM [falling, partial curve]

Cc1ccc(Nc2nnc(-c3ccc(C)c(S(=O)(=O)N4CCOCC4)c3)c3ccccc23)c(C)c1
AC50 [1]: 6.31 µM [falling, single point]

CCC(Cc1ccccc1)NC(=O)Cn1ncc2c3ccccc3n(Cc3ccccc3)c2c1=O (configuration not stated)
AC50 [1]: 7.94 µM [falling, partial curve]

Cc1oc(-c2ccc(Cl)cc2)nc1CN1CCC(C(=O)NCCCN2CCN(c3cccc(Cl)c3)CC2)CC1
AC50 [1]: 25.1 µM [falling, partial curve]

Cc1ccc2c(c1)NC(=O)C(CC(=O)Nc1ccccc1Cl)O2 (configuration not stated)
AC50 [1]: 2 µM [rising, full curve]

Cc1ccc(-c2nc3nc4ccccc4nc3n2Cc2ccco2)cc1
AC50 [1]: 2.51 µM [falling, full curve]

Cc1ccc(-n2ncc3c(NCCCn4ccnc4)ncnc32)cc1Cl
AC50 [1]: 25.1 µM [falling, partial curve]

COC(=O)c1cnc(NCc2ccc(F)cc2)c2ccccc12
AC50 [1]: 39.8 µM [falling, single point]

Cc1cc(F)ccc1S(=O)(=O)Nc1ccc2c(c1)CCCN2C(=O)c1cccs1
AC50 [1]: 39.8 µM [falling, partial curve]

COc1ccc(N2C(=O)C(CC(=O)Nc3ccc(F)cc3)N(Cc3ccc4c(c3)OCO4)C2=O)cc1 (configuration not stated)
AC50 [1]: 25.1 µM [falling, partial curve]

CCN(CC)C(=O)Cn1c(=O)nc(-c2ccccc2F)c2cc(Cl)ccc21
AC50 [1]: 3.98 µM [falling, partial curve]

CCCNC(=O)N1[C@H](c2ccc(C)s2)[C@@H](C)C(=O)[C@@H](C)[C@@H]1c1ccc(C)s1
AC50 [1]: 0.1 µM [rising, full curve, poor fit]

COc1ccc(-n2c(=O)c3sc4ccccc4c3n(CC(=O)Nc3ccccc3F)c2=O)cc1
AC50 [2]: 39.8 µM [rising, single point]
AC50 [3]: 5.01 µM [rising, full curve]

O=C(CSc1nnc(-c2cc3ccccc3cc2O)n1Cc1ccco1)c1ccc(F)cc1
AC50 [1]: 15.8 µM [falling, partial curve]

COc1cccc(NC(=O)CSc2nc3ccccc3n2C)c1
AC50 [1]: 25.1 µM [falling, single point]

CCN(CC)c1ccc2cc(NC(=O)CCC(=O)O)c(=O)oc2c1
AC50 [1]: 0.251 µM [falling, full curve]

COc1ccc(OC)c(CCNC(=O)c2c(C)nn(-c3ccc(F)cc3)c2-n2cccc2)c1
AC50 [1]: 25.1 µM [falling, partial curve]

Cc1nnc(N2CCC(C(=O)NC3CCCCC3)CC2)c2nn(-c3ccc(Cl)cc3)c(C)c12
AC50 [1]: 15.8 µM [falling, single point]

COc1ccc(C)cc1Nc1nc2cc(Cl)c(Cl)cc2nc1-n1nc(C)cc1C
AC50 [1]: 2.51 µM [falling, partial curve]

C=Cc1ccc(CN2C(=O)N(c3ccc(CC)cc3)S(=O)(=O)c3ccccc32)cc1
AC50 [1]: 0.0631 µM [rising, full curve, poor fit]

COc1ccc(C)cc1NC(=O)CSc1nc(=O)n(Cc2ccncc2)c2c1CCC2
AC50 [1]: 25.1 µM [falling, partial curve]

COc1ccc(C)cc1NC(=O)NCc1ccc2c(c1)CCN2C(=O)c1ccccc1
AC50 [1]: 12.6 µM [falling, partial curve]

COc1ccc(C(=O)NCCc2sc(-c3ccc(Cl)cc3)nc2C)c(OC)c1
AC50 [1]: 31.6 µM [falling, single point]

Cc1ccc(C)c(CN2C(=O)c3ccccc3S(=O)(=O)c3ccc(C(=O)N4CCN(c5ccccn5)CC4)cc32)c1
AC50 [1]: 1 µM [falling, partial curve]

CCc1cccc(N2C(=O)N(CC(=O)NCc3cccc(OC)c3OC)c3ccccc3S2(=O)=O)c1
AC50 [1]: 39.8 µM [falling, single point]

COCCNC(=O)c1ccc(CSc2nc3ccncc3n2Cc2ccccc2)cc1
AC50 [1]: 12.6 µM [falling, partial curve]

COc1ccc(S(=O)(=O)NCC(c2ccco2)N2CCOCC2)cc1C (configuration not stated)
AC50 [1]: 6.31 µM [rising, single point]

COc1ccc2nc(NC(=O)C3CCCN3S(=O)(=O)c3ccc(C)cc3)sc2c1 (configuration not stated)
AC50 [1]: 15.8 µM [falling, partial curve]

COc1cccc(NC(=O)Cn2c(=O)n(-c3ccc(Cl)cc3)c(=O)c3sc4ccccc4c32)c1
AC50 [1]: 3.98 µM [falling, partial curve]

CCOc1ccc(/C=C/c2nc3ccccc3n2S(=O)(=O)c2ccc(Br)cc2)cc1
AC50 [1]: 15.8 µM [falling, partial curve]

O=C(Cn1c(=O)nc(-c2ccccc2)c2cc(Cl)ccc21)NCCc1ccc(Cl)cc1
AC50 [1]: 20 µM [falling, partial curve]

COC(=O)c1c(NC(=O)c2ccc(Br)s2)sc2c1CCC2
AC50 [1]: 0.158 µM [falling, full curve]

CCC(=O)Nc1ccc(NC(=O)c2cccc(OC)c2)nc1
AC50 [1]: 12.6 µM [falling, partial curve]

CCc1ccc(NCc2cccn2-c2nnc(N3CCCCCC3)s2)cc1
AC50 [1]: 25.1 µM [falling, single point]

CCc1ccc(-c2[nH]nc3nc(-c4ccc(OC)cc4)cc(C(=O)NCCc4ccc(OC)c(OC)c4)c23)cc1
AC50 [1]: 2.51 µM [rising, partial curve]

COc1ccc(OC)c(-c2cc(C(=O)Nc3cnn(Cc4ccc(Cl)cc4Cl)c3)no2)c1
AC50 [1]: 20 µM [falling, single point]

COc1ccc2nc(NC(=O)c3cc(=O)c4ccccc4o3)sc2c1
AC50 [1]: 7.94 µM [falling, partial curve]

Cc1c(C(=O)Nc2ccncc2)sc2nc(-c3ccc(F)cc3)cn12
AC50 [1]: 10 µM [rising, partial curve] [measured here: IkB-luc green channel]

COc1cc(C(=O)Nc2cc(-c3nc4cc(C)ccc4o3)ccc2C)cc(OC)c1OC
AC50 [1]: 1 µM [falling, full curve, poor fit]

O=C(NCc1nc2cccnc2n1Cc1ccc(F)cc1)c1ccccc1C(F)(F)F
AC50 [1]: 0.501 µM [rising, full curve]

Cc1ccccc1CN1C(=O)c2ccccc2Sc2ccc(C(=O)NCc3cccs3)cc21
AC50 [1]: 20 µM [falling, partial curve]

Cc1onc(-c2ccccc2Cl)c1C(=O)N1CCN(C/C=C/c2ccccc2)CC1
AC50 [1]: 10 µM [falling, partial curve]

O=C(Oc1cccc(NC(=O)c2ccco2)c1)c1cccc(S(=O)(=O)N2CCCC2)c1
AC50 [1]: 15.8 µM [falling, partial curve]

COc1ccc(NC(=O)CSc2nc(-c3ccco3)cc(C(F)(F)F)n2)cc1
AC50 [1]: 2.51 µM [rising, full curve]

CCCn1c(=O)c2[nH]c(-c3ccc(OCC(=O)Nc4ccc(C#N)cc4)cc3)nc2n(CCC)c1=O
AC50 [1]: 3.98 µM [falling, partial curve, poor fit] [measured here: IkB-luc green channel]

CCC(C)NC(=O)c1ccc2c(=O)n3c(nc2c1)CCCCC3 (configuration not stated)
AC50 [1]: 6.31 µM [rising, partial curve]

COc1cc(C2c3c(-c4ccccc4)n[nH]c3C(=O)N2c2ccccc2)ccc1O (configuration not stated)
AC50 [1]: 5.01 µM [falling, partial curve]

CSc1cccc(Nc2cc(C(=O)NCCCN(C)c3ccccc3)c3ccccc3n2)c1
AC50 [1]: 0.251 µM [falling, partial curve, poor fit]

COc1ccc(/C=C/C(=O)Nc2nc3n(n2)C(c2ccc(F)cc2)C=C(c2ccccc2)N3)cc1 (configuration not stated)
AC50 [1]: 20 µM [falling, single point]

COc1ccc(NC(=O)C2C(=O)NC3(C)CC2c2ccccc2O3)cc1 (configuration not stated)
AC50 [1]: 15.8 µM [falling, partial curve]

COc1ccc(NC(=O)C2CCCN(S(=O)(=O)c3ccc(Br)s3)C2)cc1 (configuration not stated)
AC50 [1]: 20 µM [falling, partial curve]

CCc1ccc(CNC(=O)c2c(C)oc3ncnc(N4CCOCC4)c23)cc1
AC50 [1]: 15.8 µM [falling, single point]

COC(=O)c1cc(COc2ccc3oc(C)c(C(=O)OC)c3c2)c(C)o1
AC50 [1]: 3.98 µM [falling, partial curve]

CCOC(=O)Cc1nnc2c(Nc3ccc(Cl)cc3)nc3nonc3n12
AC50 [2]: 3.16 µM [falling, full curve]
AC50 [3]: 7.94 µM [falling, full curve]

O=C(NCCn1ccc2ccccc21)c1ccc(Cl)cc1
AC50 [1]: 39.8 µM [falling, partial curve, poor fit]

COc1ccccc1NC(=O)CSc1nc(-c2ccc(C(C)(C)C)cc2)c(C#N)c(=O)[nH]1
AC50 [1]: 5.01 µM [falling, partial curve]

Source: PubChem BioAssay AID445 (National Center for Advancing Translational Sciences (NCATS), 2006)
